Source: the supplement of paper PMC8920030
Further values from the same series stand in other lists. Where a SMILES comes first, the peptide text is derived from it. Bridges are numbered along the chain shown (N, C = ends). [ ]: non-standard residue; d: D form. The star is where a group is joined. Heptanoyl(5-Me) = CCC(C)CCCC(=O)*; Dab = NCC[C@H](N)C(=O)O

How the values were obtained:
Conditions in all cases: growth mode: biofilm, 24 h; exposure time: 24 h
colistin [1] = compound: T1, CCC(C)CCCC(=O)N[C@@H](CCN)C(=O)N[C@H](C(=O)N[C@@H](CCN)C(=O)N[C@H]1CCNC(=O)[C@H]([C@@H](C)O)NC(=O)[C@H](CCN)NC(=O)[C@H](CCN)NC(=O)[C@H](CC(C)C)NC(=O)[C@@H](CC(C)C)NC(=O)[C@H](CCN)NC1=O)[C@@H](C)O [colistin]; test: minimum concentration of killing, 2-log CFU reduction of biofilm (MCK99); higher = more biofilm tolerance
Experimental: (§1)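 Clinical P. aeruginosa isolates were grown as static biofilms for 24 h at 37 °C in LB in half-area 96-well plates, then exposed for 24 h to colistin at 1, 4, 16, 64, 256 or […]. Surviving CFU were counted by spotting serial dilutions. MCK is the lowest tested concentration giving the stated log reduction in CFU versus an untreated control; '>1024' means the reduction was not reached at the top dose, and 1 is the lowest dose tested (≤1).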

colistin [2] = compound: T1, colistin; test: minimum concentration eradicating biofilm below detection limit (MCK-E); higher = more biofilm tolerance
Experimental: as §1

tobramycin [3] = compound: T2, NC[C@H]1O[C@H](O[C@H]2[C@H](O)[C@@H](O[C@H]3O[C@H](CO)[C@@H](O)[C@H](N)[C@H]3O)[C@H](N)C[C@@H]2N)[C@H](N)C[C@@H]1O [tobramycin]; test: as above
Experimental: as §1, with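 “tobramycin” for “colistin”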

colistin [4] = compound: T1, colistin; test: minimum concentration of killing, 4-log CFU reduction of biofilm (MCK99.99); higher = more biofilm tolerance
Experimental: as §1

colistin [5] = compound: T1, colistin; test: minimum concentration of killing, 1-log CFU reduction of biofilm (MCK90); higher = more biofilm tolerance
Experimental: as §1

tobramycin [6] = compound: T2, tobramycin; test: minimum concentration of killing, 2-log CFU reduction of biofilm (MCK99); higher = more biofilm tolerance
Experimental: as §1, with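 “tobramycin” for “colistin”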

tobramycin [7] = compound: T2, tobramycin; test: minimum concentration of killing, 4-log CFU reduction of biofilm (MCK99.99); higher = more biofilm tolerance
Experimental: as §1, with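 “tobramycin” for “colistin”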

tobramycin [8] = compound: T2, tobramycin; test: minimum concentration of killing, 1-log CFU reduction of biofilm (MCK90); higher = more biofilm tolerance
Experimental: as §1, with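 “tobramycin” for “colistin”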

| Test System | minimum concentration of killing (colistin [1]) | minimum concentration eradicating biofilm below detection limit (colistin [2]) | minimum concentration eradicating biofilm below detection limit (tobramycin [3]) | minimum concentration of killing (colistin [4]) | minimum concentration of killing (colistin [5]) | minimum concentration of killing (tobramycin [6]) | minimum concentration of killing (tobramycin [7]) | minimum concentration of killing (tobramycin [8]) |
| --- | --- | --- | --- | --- | --- | --- | --- | --- |
| Pseudomonas aeruginosa clinical isolate CH4780 | 64 µg/mL | 64 µg/mL | 1020 µg/mL | 64 µg/mL | 64 µg/mL | 16 µg/mL | 256 µg/mL | 16 µg/mL |
| Pseudomonas aeruginosa clinical isolate CH4785 | 256 µg/mL | 256 µg/mL | 1020 µg/mL | 256 µg/mL | 256 µg/mL | 64 µg/mL | 256 µg/mL | ≤ 1 µg/mL |
| Pseudomonas aeruginosa clinical isolate CH4786 | 256 µg/mL | 256 µg/mL | 64 µg/mL | 256 µg/mL | 256 µg/mL | 4 µg/mL | 4 µg/mL | 4 µg/mL |
| Pseudomonas aeruginosa clinical isolate CH4840 | 256 µg/mL | 256 µg/mL | 256 µg/mL | 256 µg/mL | 64 µg/mL | 4 µg/mL | 64 µg/mL | 4 µg/mL |
| Pseudomonas aeruginosa clinical isolate CH4860 | 64 µg/mL | 256 µg/mL | 64 µg/mL | 256 µg/mL | 64 µg/mL | 16 µg/mL | 64 µg/mL | 16 µg/mL |
| Pseudomonas aeruginosa clinical isolate CH4878 | 256 µg/mL | 256 µg/mL | 256 µg/mL | 256 µg/mL | 64 µg/mL | 16 µg/mL | 256 µg/mL | 4 µg/mL |
| Pseudomonas aeruginosa clinical isolate CH4891 | 256 µg/mL | 256 µg/mL | 1020 µg/mL | 256 µg/mL | 256 µg/mL | 4 µg/mL | 1020 µg/mL | 4 µg/mL |
| Pseudomonas aeruginosa clinical isolate CH4914 | 64 µg/mL | 256 µg/mL | 256 µg/mL | 64 µg/mL | 4 µg/mL | ≤ 1 µg/mL | 256 µg/mL | ≤ 1 µg/mL |
| Pseudomonas aeruginosa clinical isolate CH4916 | 256 µg/mL | 256 µg/mL | 1020 µg/mL | 256 µg/mL | 256 µg/mL | 256 µg/mL | 1020 µg/mL | 256 µg/mL |
| Pseudomonas aeruginosa clinical isolate CH4990 | 256 µg/mL | 256 µg/mL | 256 µg/mL | 256 µg/mL | 256 µg/mL | 16 µg/mL | 64 µg/mL | 4 µg/mL |
| Pseudomonas aeruginosa clinical isolate CH4992 | 256 µg/mL | 256 µg/mL | 256 µg/mL | 256 µg/mL | 256 µg/mL | 64 µg/mL | 64 µg/mL | 16 µg/mL |
| Pseudomonas aeruginosa clinical isolate CH5052 | 256 µg/mL | 256 µg/mL | > 1020 µg/mL | 256 µg/mL | 64 µg/mL | 256 µg/mL | 1020 µg/mL | 256 µg/mL |
| Pseudomonas aeruginosa clinical isolate CH5066 | 256 µg/mL | 256 µg/mL | 1020 µg/mL | 256 µg/mL | 256 µg/mL | 16 µg/mL | 1020 µg/mL | ≤ 1 µg/mL |
| Pseudomonas aeruginosa clinical isolate CH5182 | 256 µg/mL | 256 µg/mL | 256 µg/mL | 256 µg/mL | 256 µg/mL | 4 µg/mL | 256 µg/mL | 4 µg/mL |
| Pseudomonas aeruginosa clinical isolate CH5206 | 256 µg/mL | 256 µg/mL | 64 µg/mL | 256 µg/mL | 256 µg/mL | 4 µg/mL | 64 µg/mL | 4 µg/mL |
| Pseudomonas aeruginosa clinical isolate CH5262 | 64 µg/mL | 256 µg/mL | 256 µg/mL | 256 µg/mL | 64 µg/mL | 16 µg/mL | 64 µg/mL | 16 µg/mL |
| Pseudomonas aeruginosa clinical isolate CH5267 | 256 µg/mL | 256 µg/mL | > 1020 µg/mL | 256 µg/mL | 4 µg/mL | 16 µg/mL | 256 µg/mL | ≤ 1 µg/mL |
| Pseudomonas aeruginosa clinical isolate CH5334 | 256 µg/mL | 256 µg/mL | 1020 µg/mL | 256 µg/mL | 256 µg/mL | 64 µg/mL | 256 µg/mL | 4 µg/mL |
| Pseudomonas aeruginosa clinical isolate CH5362 | 256 µg/mL | 256 µg/mL | 1020 µg/mL | 256 µg/mL | 256 µg/mL | 4 µg/mL | 256 µg/mL | ≤ 1 µg/mL |
| Pseudomonas aeruginosa clinical isolate CH5387 | 64 µg/mL | 256 µg/mL | 256 µg/mL | 256 µg/mL | 64 µg/mL | 16 µg/mL | 64 µg/mL | 16 µg/mL |
| Pseudomonas aeruginosa clinical isolate CH5432 | 64 µg/mL | 1020 µg/mL | > 1020 µg/mL | 256 µg/mL | 64 µg/mL | 1020 µg/mL | > 1020 µg/mL | 16 µg/mL |

| Test System | minimum concentration of killing (colistin [1]) | minimum concentration eradicating biofilm below detection limit (colistin [2]) | minimum concentration eradicating biofilm below detection limit (tobramycin [3]) | minimum concentration of killing (colistin [4]) | minimum concentration of killing (colistin [5]) | minimum concentration of killing (tobramycin [6]) | minimum concentration of killing (tobramycin [7]) | minimum concentration of killing (tobramycin [8]) |
| --- | --- | --- | --- | --- | --- | --- | --- | --- |
| Pseudomonas aeruginosa clinical isolate CH5462 | 256 µg/mL | 256 µg/mL | 256 µg/mL | 256 µg/mL | 256 µg/mL | 16 µg/mL | 256 µg/mL | 16 µg/mL |
| Pseudomonas aeruginosa clinical isolate CH5478 | 256 µg/mL | 256 µg/mL | 1020 µg/mL | 256 µg/mL | 256 µg/mL | 256 µg/mL | 1020 µg/mL | 64 µg/mL |
| Pseudomonas aeruginosa clinical isolate CH5528 | 64 µg/mL | 256 µg/mL | 1020 µg/mL | 64 µg/mL | 64 µg/mL | 64 µg/mL | 1020 µg/mL | 64 µg/mL |
| Pseudomonas aeruginosa clinical isolate F2084 | 256 µg/mL | > 1020 µg/mL | > 1020 µg/mL | 1020 µg/mL | 256 µg/mL | 64 µg/mL | 1020 µg/mL | 16 µg/mL |
| Pseudomonas aeruginosa clinical isolate F2093 | 256 µg/mL | 256 µg/mL | 256 µg/mL | 256 µg/mL | 64 µg/mL | 64 µg/mL | 64 µg/mL | 4 µg/mL |
| Pseudomonas aeruginosa clinical isolate F2119 | 64 µg/mL | 1020 µg/mL | > 1020 µg/mL | 1020 µg/mL | 16 µg/mL | 256 µg/mL | > 1020 µg/mL | 64 µg/mL |
| Pseudomonas aeruginosa clinical isolate F2128 | 256 µg/mL | 256 µg/mL | 64 µg/mL | 256 µg/mL | 256 µg/mL | 64 µg/mL | 64 µg/mL | 64 µg/mL |
| Pseudomonas aeruginosa clinical isolate F2137 | 64 µg/mL | 256 µg/mL | 256 µg/mL | 256 µg/mL | 64 µg/mL | ≤ 1 µg/mL | 16 µg/mL | ≤ 1 µg/mL |
| Pseudomonas aeruginosa clinical isolate F2148 | 64 µg/mL | 256 µg/mL | 256 µg/mL | 256 µg/mL | 64 µg/mL | 4 µg/mL | 4 µg/mL | ≤ 1 µg/mL |
| Pseudomonas aeruginosa clinical isolate F2160 | 64 µg/mL | 64 µg/mL | 1020 µg/mL | 64 µg/mL | 64 µg/mL | ≤ 1 µg/mL | 1020 µg/mL | ≤ 1 µg/mL |
| Pseudomonas aeruginosa clinical isolate F2165 | 256 µg/mL | 256 µg/mL | 64 µg/mL | 256 µg/mL | 256 µg/mL | 4 µg/mL | 4 µg/mL | ≤ 1 µg/mL |
| Pseudomonas aeruginosa clinical isolate F2166 | 256 µg/mL | 256 µg/mL | 16 µg/mL | 256 µg/mL | 256 µg/mL | 4 µg/mL | 4 µg/mL | ≤ 1 µg/mL |
| Pseudomonas aeruginosa clinical isolate F2172 | 64 µg/mL | 256 µg/mL | 1020 µg/mL | 64 µg/mL | 16 µg/mL | 16 µg/mL | 1020 µg/mL | 4 µg/mL |
| Pseudomonas aeruginosa clinical isolate F2205 | 256 µg/mL | 256 µg/mL | > 1020 µg/mL | 256 µg/mL | 64 µg/mL | 64 µg/mL | 1020 µg/mL | 16 µg/mL |
| Pseudomonas aeruginosa clinical isolate F2224 | 64 µg/mL | 256 µg/mL | > 1020 µg/mL | 256 µg/mL | 64 µg/mL | 256 µg/mL | 1020 µg/mL | 64 µg/mL |
| Pseudomonas aeruginosa clinical isolate F2229 | 64 µg/mL | 256 µg/mL | 1020 µg/mL | 256 µg/mL | 16 µg/mL | 256 µg/mL | 1020 µg/mL | 4 µg/mL |
| Pseudomonas aeruginosa clinical isolate F2230 | 256 µg/mL | 1020 µg/mL | 64 µg/mL | 256 µg/mL | 64 µg/mL | 16 µg/mL | 64 µg/mL | 16 µg/mL |
| Pseudomonas aeruginosa clinical isolate F2234 | 256 µg/mL | 256 µg/mL | 256 µg/mL | 256 µg/mL | 64 µg/mL | 16 µg/mL | 256 µg/mL | 4 µg/mL |
| Pseudomonas aeruginosa clinical isolate F2235 | 256 µg/mL | 256 µg/mL | > 1020 µg/mL | 256 µg/mL | 256 µg/mL | 1020 µg/mL | > 1020 µg/mL | 256 µg/mL |
| Pseudomonas aeruginosa clinical isolate F2236 | 256 µg/mL | 256 µg/mL | 256 µg/mL | 256 µg/mL | 64 µg/mL | 4 µg/mL | 256 µg/mL | ≤ 1 µg/mL |
